Source: PubChem BioAssay AID1347075 (National Center for Advancing Translational Sciences (NCATS), 2019)
In all, about 400,000 compounds went through this assay and about 5,500 (1.4%) were called active. Inconclusive means that the source gave no clear call. Such entries were picked first, then a sample of the others. Calls come from the whole dose curve; as a rule, active = well fitted cell-killing curve with a large enough effect; inconclusive = small, poorly fitted or top-dose-only effect, or effect the other way; inactive = flat fitted curve, though single readings scatter. Potencies beside an inconclusive call are fits to weak or partial responses and may not hold up. Some compounds were tested as several samples or in several runs, with calls that do not always agree.

Assay: qHTS assay for MDR1-selective chemotherapeutics: Primary screen using the parental adenocarcinoma cell KB-3-1; note: nearly all actives have a fitted effect of over 60% in size
Settings: KB-3-1 viability, CellTiter-Glo ATP luminescence, 72 h; activity change, negative = cytotoxic: at 46.1 µM (top of the series)
Summary of the method: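 Cells are dispensed, compounds pinned in, plates held at 37 °C for 72 h, then CellTiter-Glo is added and luminescence read after 10 minutes. Cell line: parental KB-3-1 in phenol-red-free DMEM, 10% FBS.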
% is set by controls: 0 for no effect and ±100 for the full control effect; potency is the fitted concentration of half-maximal effect.

Row | SMILES | activity change, negative = cytotoxic | Potency
1 | c1ccc2c(-c3[nH]ncc3CNCCCn3ncc4ccccc43)cccc2c1 | inactive: -0.0516% | –
2 | O=C(NCc1ccccc1)c1cccc(NC(=O)C2CCCC2)c1 | inactive: 0% | –
3 | O=C(CCC1CCCCC1)NCCS(=O)(=O)N1CCN(c2ccccc2F)CC1 | – | inconclusive: 0.0082 µM [rising, full curve]
4 | COc1cc2c(cc1OC)[C@@H](NC(=O)C(C)C)[C@H](OCc1ccccc1)C2 | inactive: -11.6% | –
5 | Cc1cc(N2CCN(C)CC2)ccc1NC(=O)c1cccc(S(=O)(=O)N2CCc3ccccc3C2)c1 | – | inconclusive: 23.1 µM [cytotoxic, single point]
6 | CCCC(=O)N(Cc1cc(=O)[nH]c2ccccc12)c1ccccc1C | inconclusive: -2.25% | –
7 | C=CCN(CC(=O)Nc1cccnc1)S(=O)(=O)c1ccc(Cl)cc1 | inactive: -7.24% | –
8 | C=CCn1c2ccccc2c2nnc(SCCN3CCCCC3)nc21 | – | inconclusive: 16.4 µM [cytotoxic, partial curve, poor fit]
9 | CC(C)CC(COCc1ccc(Cl)cc1)N1CCN(C(=O)c2ccc(C(F)(F)F)cc2)CCC1=O (stereo not given) | – | active: 18.4 µM
10 | C[C@H](CO)N1C[C@H](C)[C@@H](CN(C)Cc2ccc3c(c2)OCO3)Oc2c(NC(=O)C3CCCCC3)cccc2C1=O | – | inconclusive: 14.6 µM [cytotoxic, partial curve, poor fit]
11 | COC(=O)c1sc(NC(=S)NC(=O)c2ccccc2C)nc1C | inactive: -6.5% | –
12 | C#CCN(C[C@@H]1[C@@H](OC(=O)NCc2ccco2)[C@@H](OC(=O)NCc2ccco2)CN(C(=O)OC(C)C)N1C(=O)OC(C)C)S(=O)(=O)c1ccc(C)cc1 | – | inconclusive: 29.1 µM [cytotoxic, single point]
13 | COc1ccccc1N(CC(=O)NCCSCc1cccc(C)c1)S(=O)(=O)c1ccccc1 | – | inconclusive: 23.1 µM [cytotoxic, single point]
14 | COc1ccccc1N1CCN(C2CCCN(S(=O)(=O)c3cccc(Cl)c3)C2)CC1 (stereo not given) | inactive: -6.46% | –
15 | Cc1cc(C)c2c(N=NN3CCOCC3)[nH]nc2n1 | – | inconclusive: 25.9 µM [rising, single point]
16 | CCCCn1c(CN2CCN(c3cccc(Cl)c3)CC2)nc2c1c(=O)[nH]c(=O)n2C | – | inconclusive: 20.6 µM [cytotoxic, partial curve, poor fit]
17 | CC(C)C1C(=O)N(Cc2cn(CCC3OCCO3)nn2)CCS(=O)(=O)N1Cc1ccc(-c2ccc(Cl)c(Cl)c2)cc1 (stereo not given) | – | inconclusive: 32.6 µM [cytotoxic, partial curve, poor fit]
18 | CCCOC(=O)N[C@@H]1C(=O)N2C(C(=O)OCCC)=C(C)CS[C@H]12 | – | active: 16.4 µM
19 | CC(=O)N1CC(C)Oc2ccc(S(=O)(=O)NC(CC(=O)O)c3ccccc3C)cc21 (stereo not given) | inactive: 23.8% | –
20 | CC(C)(C)c1ccc(-c2nc(-c3ccncc3)no2)cc1 | – | inconclusive: 18.4 µM [cytotoxic, single point]
21 | COCCCNc1ccc([N+](=O)[O-])cc1C(=O)Nc1cccc(C)n1 | – | inconclusive: 25.9 µM [rising, single point]
22 | COc1ccc(C(C#N)=Cc2ccc(NC(C)=O)cc2)cc1 | inactive: 8.41% | –
23 | Cc1ccc(C(=O)Nc2ccc(Cc3ccncc3)cc2)cc1[N+](=O)[O-] | – | inconclusive: 16.4 µM [cytotoxic, single point]
24 | CCC(C)(C)NC(=O)c1cc(S(=O)(=O)N2CCc3ccccc32)cn1C | – | inconclusive: 18.4 µM [cytotoxic, single point]

Row | SMILES | activity change, negative = cytotoxic | Potency
25 | CCOC(=O)c1c(C)[nH]c(C)c1S(=O)(=O)N1CCCC(C(=O)N2CCN(c3ccc(Cl)cc3)CC2)C1 (stereo not given) | inactive: -10.9% | –
26 | CC1CCN(C(=O)COC(=O)Cn2cnc3ccccc32)CC1 | inactive: 10.4% | –
27 | COc1ccc2c(c1)/C(=C/c1cc(OC)c(OC)c(OC)c1)C(=O)N2 | – | active: 2.31 µM
28 | CN(Cc1ccc(Cl)c(Cl)c1)C(C(=O)NCc1ccccc1)c1ccc(C(F)(F)F)cc1 (stereo not given) | – | inconclusive: 16.4 µM [cytotoxic, single point]
29 | CCc1ccc(NC(=O)C(C)OC(=O)CCN2C(=O)C3CC=CCC3C2=O)cc1 (stereo not given) | inactive: 5.39% | –
30 | C[N+]1(CCC(=O)c2ccccc2)CCCCC1 | – | inconclusive: 29.1 µM [cytotoxic, single point]
31 | CCNc1nc(OCC)nc(N2CCC(Cc3ccccc3)CC2)n1 | – | inconclusive: 32.6 µM [cytotoxic, partial curve, poor fit]
32 | COc1cc(OC)cc(C(=O)NC(=S)N(Cc2ccccc2)C(C)C)c1 | – | inconclusive: 29.1 µM [cytotoxic, single point]
33 | Cc1ccc(N2C(=O)C3CCCN3C2=S)c(C)c1 (stereo not given) | – | inconclusive: 29.1 µM [cytotoxic, single point]
34 | Cc1cc([N+](=O)[O-])ccc1NC(=O)Nc1ccc(F)cc1F | – | inconclusive: 16.4 µM [cytotoxic, single point]
35 | S=c1[nH]c2ccc(Cl)cc2[nH]1 | inactive: -27% | –
36 | Cc1cc(C)nc(Nc2n[nH]c(COc3cccc4ccccc34)n2)n1 | – | inconclusive: 2.31 µM [cytotoxic, partial curve, poor fit]
37 | CCOc1ccccc1C(=O)Nc1cc2c(cc1N1CCCC1)n(CC)c(=O)n2CC | – | inconclusive: 25.9 µM [cytotoxic, single point]
38 | Cc1cccc(-n2c3nc(=O)[nH]c(=O)c-3cc3cc([N+](=O)[O-])ccc32)c1 | – | inconclusive: 16.4 µM [cytotoxic, single point]
39 | O=C(Nc1ccc(F)cc1F)c1ccc(-c2ccccc2)s1 | inactive: 4.55% | –
40 | CCOc1cc(N2CCOCC2)c(OCC)cc1NC(=O)CN1C(=O)NC(C)(c2ccc(OC)cc2)C1=O (stereo not given) | – | inconclusive: 11.6 µM [rising, partial curve, poor fit]
41 | COc1ccc(C)cc1N(CC(=O)N1CCC(C)CC1)S(=O)(=O)c1ccc(C)cc1 | inactive: 19.4% | –
42 | O=C(c1ccccc1NS(=O)(=O)c1ccccc1[N+](=O)[O-])N1CCCC1 | – | inconclusive: 32.6 µM [rising, single point]
43 | O=C(NCc1ccccc1)c1noc2c1CCCC2 | – | inconclusive: 23.1 µM [cytotoxic, single point]
44 | CCOc1ccc2nc(NC(=O)CSc3ccccc3)sc2c1 | – | inconclusive: 9.2 µM [cytotoxic, partial curve, poor fit]
45 | O=C1c2ccccc2C(=O)N1Cc1cccnc1 | – | inconclusive: 0.0366 µM [cytotoxic, full curve]
46 | CN(c1ccccc1)S(=O)(=O)c1ccc2c(c1)OCCO2 | inactive: -18.9% | –
47 | CC(C1CCN(Cc2cn(C)nc2-c2cccc(Cl)c2)CC1)N1CCOCC1 (stereo not given) | inactive: -1.01% | –
48 | CCOC(=O)/C(N)=C/c1ncc(C(F)(F)F)cc1Cl | inactive: -6.78% | –

2 records drawn at random from the list so far, as already listed:
Row | SMILES | activity change, negative = cytotoxic | Potency
13 | COc1ccccc1N(CC(=O)NCCSCc1cccc(C)c1)S(=O)(=O)c1ccccc1 | – | inconclusive: 23.1 µM [cytotoxic, single point]
34 | Cc1cc([N+](=O)[O-])ccc1NC(=O)Nc1ccc(F)cc1F | – | inconclusive: 16.4 µM [cytotoxic, single point]

Following part.

Row | SMILES | activity change, negative = cytotoxic | Potency
49 | COc1ccc(N(C)S(=O)(=O)c2cccc(C(=O)NC3CCC(C)CC3)c2)cc1 (stereo not given) | – | inconclusive: 3.66 µM [rising, partial curve, poor fit]
50 | NNc1ncnc2sc3c(c12)CCC3 | – | inconclusive: 20.6 µM [cytotoxic, single point]
51 | CC(=O)c1sc2nc(SCC(=O)NCCc3ccccc3)[nH]c(=O)c2c1C | inconclusive: -58.1% | –
52 | COC(=O)c1c(C)oc(C)c1S(=O)(=O)NC(c1ccccc1)c1ccccc1 | – | inconclusive: 5.17 µM [rising, partial curve, poor fit]
53 | Cc1ccc(NC(=O)c2nc(S(C)(=O)=O)ncc2N(Cc2ccco2)Cc2ccco2)cc1 | inactive: -10.4% | –
54 | Cc1ccc(S(=O)(=O)Nc2ccc3ncccc3c2[N+](=O)[O-])cc1 | – | active: 18.4 µM
55 | C/C(=N\Nc1cccc2cccnc12)c1ccc[nH]1 | – | inconclusive: 29.1 µM [rising, single point]
56 | COC(=O)Nc1ccc(S(=O)(=O)N2CCN(C)CC2)cc1 | inactive: 6.11% | –
57 | COc1ccc(NC(=O)CN2C(=O)C(=O)c3ccccc32)c(OC)c1 | – | inconclusive: 2.06 µM [cytotoxic, full curve, poor fit]
58 | CCCN(CCC)S(=O)(=O)c1ccc(C(=O)N2CCCc3ccccc32)cc1 | – | inconclusive: 29.1 µM [cytotoxic, single point]
59 | N#Cc1c(Nc2cccc(F)c2)sc2c(O)cc(=O)[nH]c12 | inconclusive: 3.85% | –
60 | CN(Cc1ccccc1)c1nc2c(S(=O)(=O)c3ccccc3)nnn2c2ccsc12 | inactive: 1.49% | –
61 | CCc1ccccc1NC(=O)Cn1nnc(C(=O)NCc2cccc(OC)c2)c1N | – | active: 7.31 µM
62 | C=CCC[C@@H](Cc1ccc(F)cc1)C(=O)OC[C@@H](NC(=O)[C@@H](CC=C)CC(=O)N(CCO)Cc1ccccc1)c1ccccc1 | – | inconclusive: 20.6 µM [cytotoxic, single point]
63 | CC1CCc2nc3ncn(Cc4cccc(F)c4)c(=O)c3cc2C1 (stereo not given) | inactive: -3.3% | –
64 | Cc1ccc(Cn2ncc3c(N4CCN(c5ccccc5C)CC4)ncnc32)cc1 | – | inconclusive: 20.6 µM [cytotoxic, single point]
65 | Cc1ccc(NC(=O)CCSc2nnc(C)o2)cc1 | inactive: 17.1% | –
66 | Cc1ccc(CNc2nc(NCc3ccccc3)nc3ccsc23)c(C)c1 | – | inconclusive: 32.6 µM [cytotoxic, single point]
67 | COc1cc(Nc2ccn3nc(-c4ccccc4Cl)cc3n2)cc(OC)c1OC | – | inconclusive: 29.1 µM [cytotoxic, single point]
68 | COc1cc(OC)cc(C(=O)NC(=S)Nc2cccnc2)c1 | inactive: 2.12% | –
69 | CCOC(=O)c1sc(NC(=O)c2cc(-c3ccc(C)cc3)nc3ccccc23)c(C#N)c1C | – | inconclusive: 8.2 µM [cytotoxic, partial curve, poor fit]
70 | O=C(Nc1nc2ccccc2[nH]1)C1CCCC1 | – | inconclusive: 13 µM [cytotoxic, partial curve]
